The supplement of paper PMC7666118
Some of the results follow.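 Rule for the calls: active = dose-dependent thermal stabilisation significant by F-test of dose-response against flat model at 10% FDR; inactive = not significant.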

Amino acid sequences for entries named in this document (tags omitted). A change or cut given only in a name is not applied to a line headed by its entry.
UniProt P37108: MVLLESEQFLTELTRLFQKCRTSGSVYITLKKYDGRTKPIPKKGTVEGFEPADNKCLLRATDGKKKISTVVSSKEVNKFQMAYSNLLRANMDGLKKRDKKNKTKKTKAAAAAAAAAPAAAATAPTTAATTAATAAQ
UniProt Q13586, whole entry: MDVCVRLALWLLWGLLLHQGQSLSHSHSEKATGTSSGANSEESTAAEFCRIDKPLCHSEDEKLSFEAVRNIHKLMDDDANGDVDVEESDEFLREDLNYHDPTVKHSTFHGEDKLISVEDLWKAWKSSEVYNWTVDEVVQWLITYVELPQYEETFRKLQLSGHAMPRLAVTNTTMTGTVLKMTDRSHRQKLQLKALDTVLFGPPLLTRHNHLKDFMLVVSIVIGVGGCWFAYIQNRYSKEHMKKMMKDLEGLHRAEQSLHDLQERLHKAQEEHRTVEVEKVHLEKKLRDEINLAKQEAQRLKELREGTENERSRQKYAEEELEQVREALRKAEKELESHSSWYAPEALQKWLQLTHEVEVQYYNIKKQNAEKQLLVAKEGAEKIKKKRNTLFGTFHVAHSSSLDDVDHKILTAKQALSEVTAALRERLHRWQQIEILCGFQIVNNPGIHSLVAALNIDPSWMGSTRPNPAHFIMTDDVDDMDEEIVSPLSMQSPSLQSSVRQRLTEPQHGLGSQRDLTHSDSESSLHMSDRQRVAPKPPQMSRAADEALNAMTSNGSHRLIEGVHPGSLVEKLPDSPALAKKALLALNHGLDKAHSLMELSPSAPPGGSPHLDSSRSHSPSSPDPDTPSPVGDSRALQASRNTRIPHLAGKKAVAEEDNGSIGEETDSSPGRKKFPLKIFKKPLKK
UniProt P81877: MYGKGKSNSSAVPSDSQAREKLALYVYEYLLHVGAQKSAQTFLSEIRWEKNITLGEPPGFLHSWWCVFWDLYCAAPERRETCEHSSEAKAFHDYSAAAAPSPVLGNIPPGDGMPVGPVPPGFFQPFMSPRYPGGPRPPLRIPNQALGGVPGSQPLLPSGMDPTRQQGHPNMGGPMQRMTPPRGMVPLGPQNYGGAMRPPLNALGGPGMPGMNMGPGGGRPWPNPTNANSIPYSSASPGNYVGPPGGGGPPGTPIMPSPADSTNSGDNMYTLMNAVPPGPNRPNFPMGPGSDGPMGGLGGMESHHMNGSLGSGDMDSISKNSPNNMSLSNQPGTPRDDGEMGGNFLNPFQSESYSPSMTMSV
UniProt Q07617: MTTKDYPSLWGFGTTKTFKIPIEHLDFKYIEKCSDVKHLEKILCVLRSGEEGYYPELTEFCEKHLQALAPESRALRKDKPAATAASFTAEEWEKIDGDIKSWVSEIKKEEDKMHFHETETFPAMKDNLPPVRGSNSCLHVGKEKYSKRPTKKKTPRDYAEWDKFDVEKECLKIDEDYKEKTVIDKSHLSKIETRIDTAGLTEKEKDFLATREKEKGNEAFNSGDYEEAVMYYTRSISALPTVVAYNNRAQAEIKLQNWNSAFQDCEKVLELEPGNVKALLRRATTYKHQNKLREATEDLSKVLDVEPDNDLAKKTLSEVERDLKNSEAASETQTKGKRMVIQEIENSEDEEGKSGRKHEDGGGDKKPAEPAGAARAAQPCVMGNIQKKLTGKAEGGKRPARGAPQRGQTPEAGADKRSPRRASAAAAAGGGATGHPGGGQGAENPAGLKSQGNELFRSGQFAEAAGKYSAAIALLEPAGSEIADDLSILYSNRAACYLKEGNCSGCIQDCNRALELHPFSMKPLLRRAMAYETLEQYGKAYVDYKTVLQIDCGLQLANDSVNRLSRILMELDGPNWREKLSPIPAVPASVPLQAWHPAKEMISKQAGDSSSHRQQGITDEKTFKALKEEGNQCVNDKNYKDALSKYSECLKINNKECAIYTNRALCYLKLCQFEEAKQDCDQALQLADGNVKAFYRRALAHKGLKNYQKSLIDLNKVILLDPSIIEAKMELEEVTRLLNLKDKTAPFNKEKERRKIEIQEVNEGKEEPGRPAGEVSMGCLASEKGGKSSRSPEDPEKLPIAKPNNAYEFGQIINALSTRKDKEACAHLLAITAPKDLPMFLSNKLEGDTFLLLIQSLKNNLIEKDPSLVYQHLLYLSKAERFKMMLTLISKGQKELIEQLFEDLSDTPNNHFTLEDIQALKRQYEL
UniProt Q92925, whole entry: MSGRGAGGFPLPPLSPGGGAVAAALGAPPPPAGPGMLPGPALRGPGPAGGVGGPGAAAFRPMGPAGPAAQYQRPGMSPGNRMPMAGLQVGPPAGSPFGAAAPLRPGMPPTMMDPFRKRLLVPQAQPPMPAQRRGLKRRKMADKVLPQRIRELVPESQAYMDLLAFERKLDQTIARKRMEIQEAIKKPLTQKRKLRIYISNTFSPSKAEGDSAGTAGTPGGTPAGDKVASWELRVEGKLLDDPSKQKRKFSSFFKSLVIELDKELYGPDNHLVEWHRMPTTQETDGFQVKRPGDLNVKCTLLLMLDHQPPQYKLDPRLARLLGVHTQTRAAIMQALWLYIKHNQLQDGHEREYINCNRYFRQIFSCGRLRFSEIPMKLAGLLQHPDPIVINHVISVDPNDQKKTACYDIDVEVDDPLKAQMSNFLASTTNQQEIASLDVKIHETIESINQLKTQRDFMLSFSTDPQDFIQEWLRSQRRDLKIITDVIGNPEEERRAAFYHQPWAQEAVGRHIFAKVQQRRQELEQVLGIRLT
UniProt Q9NTJ3, whole entry: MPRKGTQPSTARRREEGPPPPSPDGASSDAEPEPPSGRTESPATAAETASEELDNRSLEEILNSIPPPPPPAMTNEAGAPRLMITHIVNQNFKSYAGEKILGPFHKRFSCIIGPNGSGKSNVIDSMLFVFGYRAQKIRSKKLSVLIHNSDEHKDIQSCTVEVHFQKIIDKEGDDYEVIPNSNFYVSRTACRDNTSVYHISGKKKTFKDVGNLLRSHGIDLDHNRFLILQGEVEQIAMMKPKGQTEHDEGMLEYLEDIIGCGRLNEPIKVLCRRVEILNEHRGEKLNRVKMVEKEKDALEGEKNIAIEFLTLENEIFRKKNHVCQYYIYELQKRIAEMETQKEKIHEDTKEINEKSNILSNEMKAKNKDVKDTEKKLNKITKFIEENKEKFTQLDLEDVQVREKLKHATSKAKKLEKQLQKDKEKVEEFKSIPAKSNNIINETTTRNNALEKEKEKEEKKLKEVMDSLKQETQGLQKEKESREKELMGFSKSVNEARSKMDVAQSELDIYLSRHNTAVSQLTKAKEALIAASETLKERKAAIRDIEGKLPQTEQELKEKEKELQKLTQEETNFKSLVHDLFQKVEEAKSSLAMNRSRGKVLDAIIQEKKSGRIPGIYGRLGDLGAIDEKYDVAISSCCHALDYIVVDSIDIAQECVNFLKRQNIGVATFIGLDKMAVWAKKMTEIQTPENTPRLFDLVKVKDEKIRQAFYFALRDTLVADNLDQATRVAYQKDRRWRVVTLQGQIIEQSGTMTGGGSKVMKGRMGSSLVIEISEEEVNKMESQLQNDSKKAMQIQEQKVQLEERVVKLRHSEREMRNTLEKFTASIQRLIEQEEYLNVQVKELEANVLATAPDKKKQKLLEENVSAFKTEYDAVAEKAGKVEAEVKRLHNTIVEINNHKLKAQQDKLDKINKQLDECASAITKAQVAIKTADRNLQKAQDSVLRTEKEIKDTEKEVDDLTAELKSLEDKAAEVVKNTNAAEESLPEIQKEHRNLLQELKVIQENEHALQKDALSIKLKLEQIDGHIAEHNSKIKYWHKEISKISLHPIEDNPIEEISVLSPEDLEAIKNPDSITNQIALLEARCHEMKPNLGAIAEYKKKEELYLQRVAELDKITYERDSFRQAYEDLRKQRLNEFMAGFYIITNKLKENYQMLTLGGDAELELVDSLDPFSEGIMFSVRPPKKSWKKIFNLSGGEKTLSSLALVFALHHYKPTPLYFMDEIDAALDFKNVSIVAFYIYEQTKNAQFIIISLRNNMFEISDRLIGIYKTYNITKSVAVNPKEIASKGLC
UniProt Q8ND83, whole entry: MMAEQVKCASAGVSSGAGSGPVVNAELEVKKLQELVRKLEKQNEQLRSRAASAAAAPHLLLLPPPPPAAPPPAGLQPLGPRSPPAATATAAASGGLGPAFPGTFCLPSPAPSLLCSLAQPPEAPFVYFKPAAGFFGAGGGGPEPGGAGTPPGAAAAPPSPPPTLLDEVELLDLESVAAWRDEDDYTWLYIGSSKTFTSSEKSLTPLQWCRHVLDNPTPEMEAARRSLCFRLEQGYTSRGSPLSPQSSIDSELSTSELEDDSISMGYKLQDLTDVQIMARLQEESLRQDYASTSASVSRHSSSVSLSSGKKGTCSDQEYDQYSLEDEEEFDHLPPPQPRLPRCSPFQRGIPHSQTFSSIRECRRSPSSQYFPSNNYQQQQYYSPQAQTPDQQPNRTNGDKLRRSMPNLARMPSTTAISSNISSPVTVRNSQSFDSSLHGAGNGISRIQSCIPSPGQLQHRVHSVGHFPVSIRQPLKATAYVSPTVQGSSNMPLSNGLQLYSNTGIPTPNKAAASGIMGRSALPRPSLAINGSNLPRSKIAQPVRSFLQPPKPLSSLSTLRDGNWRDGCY
UniProt Q13243: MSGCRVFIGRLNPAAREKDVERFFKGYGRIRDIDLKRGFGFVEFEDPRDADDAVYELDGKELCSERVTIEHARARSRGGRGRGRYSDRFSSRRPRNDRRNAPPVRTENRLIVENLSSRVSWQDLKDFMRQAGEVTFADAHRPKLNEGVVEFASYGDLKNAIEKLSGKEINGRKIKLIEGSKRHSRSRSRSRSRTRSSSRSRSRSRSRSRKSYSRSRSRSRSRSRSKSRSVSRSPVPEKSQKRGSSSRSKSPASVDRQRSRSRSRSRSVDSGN
UniProt P42226: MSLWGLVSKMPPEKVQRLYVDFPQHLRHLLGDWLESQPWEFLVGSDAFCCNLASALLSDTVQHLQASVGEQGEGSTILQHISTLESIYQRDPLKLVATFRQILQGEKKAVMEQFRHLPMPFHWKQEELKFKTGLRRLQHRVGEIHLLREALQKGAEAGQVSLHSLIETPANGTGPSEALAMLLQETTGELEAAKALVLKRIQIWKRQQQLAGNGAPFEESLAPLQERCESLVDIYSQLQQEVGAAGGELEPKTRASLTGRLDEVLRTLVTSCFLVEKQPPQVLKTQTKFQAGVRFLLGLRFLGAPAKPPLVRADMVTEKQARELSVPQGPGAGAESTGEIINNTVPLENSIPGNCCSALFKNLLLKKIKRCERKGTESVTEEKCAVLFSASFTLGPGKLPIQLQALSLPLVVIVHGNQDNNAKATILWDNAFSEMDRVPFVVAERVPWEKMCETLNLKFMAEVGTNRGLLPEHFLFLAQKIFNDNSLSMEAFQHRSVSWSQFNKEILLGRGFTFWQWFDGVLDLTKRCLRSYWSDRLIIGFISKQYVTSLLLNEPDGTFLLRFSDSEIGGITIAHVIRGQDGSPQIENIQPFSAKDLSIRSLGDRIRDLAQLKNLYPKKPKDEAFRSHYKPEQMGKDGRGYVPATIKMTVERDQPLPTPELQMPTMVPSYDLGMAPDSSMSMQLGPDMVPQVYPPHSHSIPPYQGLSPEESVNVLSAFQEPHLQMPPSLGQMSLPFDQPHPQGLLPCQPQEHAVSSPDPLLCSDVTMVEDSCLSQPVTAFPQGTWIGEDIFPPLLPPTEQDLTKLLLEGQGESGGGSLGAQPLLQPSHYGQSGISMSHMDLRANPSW
UniProt P42224: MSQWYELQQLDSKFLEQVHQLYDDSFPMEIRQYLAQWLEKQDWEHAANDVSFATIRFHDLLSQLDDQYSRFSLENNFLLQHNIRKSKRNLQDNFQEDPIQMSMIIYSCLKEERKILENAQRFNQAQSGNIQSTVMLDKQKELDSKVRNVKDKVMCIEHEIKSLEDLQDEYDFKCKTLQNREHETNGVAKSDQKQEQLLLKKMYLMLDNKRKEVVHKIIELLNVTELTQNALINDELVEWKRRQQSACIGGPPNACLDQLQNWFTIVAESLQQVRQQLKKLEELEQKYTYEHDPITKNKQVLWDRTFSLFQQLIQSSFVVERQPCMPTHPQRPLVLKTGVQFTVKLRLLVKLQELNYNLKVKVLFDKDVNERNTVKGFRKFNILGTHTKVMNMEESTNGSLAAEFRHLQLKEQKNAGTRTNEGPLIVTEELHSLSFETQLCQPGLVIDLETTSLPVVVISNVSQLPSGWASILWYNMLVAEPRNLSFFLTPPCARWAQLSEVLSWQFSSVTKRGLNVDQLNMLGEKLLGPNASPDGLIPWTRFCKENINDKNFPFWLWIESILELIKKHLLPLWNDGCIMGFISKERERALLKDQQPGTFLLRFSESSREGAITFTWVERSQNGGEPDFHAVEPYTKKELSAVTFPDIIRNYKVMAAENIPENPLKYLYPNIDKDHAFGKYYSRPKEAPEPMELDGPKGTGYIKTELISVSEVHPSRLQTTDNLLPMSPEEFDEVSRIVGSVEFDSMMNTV
UniProt O60232: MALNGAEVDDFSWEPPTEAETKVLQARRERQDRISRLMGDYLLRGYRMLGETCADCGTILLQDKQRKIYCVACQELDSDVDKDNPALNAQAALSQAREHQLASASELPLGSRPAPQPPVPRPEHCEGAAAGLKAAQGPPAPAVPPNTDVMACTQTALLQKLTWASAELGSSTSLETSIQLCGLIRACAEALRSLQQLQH

Each target was assayed with Nc1nc2c(ncn2[C@@H]2O[C@H](COP(=O)(O)OP(=O)(O)OP(=O)(O)O)[C@@H](O)[C@H]2O)c(=O)[nH]1 (assay: dose-dependent thermal stabilisation call (2D-TPP, DLPTP, 10% FDR) (binary (1 = stabilised)); higher = stabilised by the compound). Conditions: system: Jurkat gel-filtered lysate; concentration range 1-500 µM.
Description: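 2D thermal proteome profiling in gel-filtered Jurkat E6.1 lysate (2 mg/ml) treated with NaGTP (0, 1, 10, 100, 500 uM) for 10 min at room temperature, then heated 3 min at one of 12 temperatures (42-63.9 C). Soluble protein was quantified by TMT10 MS. The value is the DLPTP call of the paper: dose-dependent thermal stabilisation over all temperatures at 10% FDR (F-test of a dose-response against a flat model); one experiment, one call per tested protein.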

| Target | dose-dependent thermal stabilisation call |
| --- | --- |
| SRP14 (UniProt P37108) | inactive: 0 |
| SNRPD1 (UniProt P62314) | inactive: 0 |
| TADA3 (UniProt O75528) | inactive: 0 |
| SIPA1L1 (UniProt O43166) | inactive: 0 |
| SNRPB2 (UniProt P08579) | inactive: 0 |
| SYNJ2 (UniProt O15056) | inactive: 0 |
| STIM1 (UniProt Q13586) | inactive: 0 |
| SORT1 (UniProt Q99523) | inactive: 0 |
| SPR (UniProt P35270) | inactive: 0 |
| STARD10 (UniProt Q9Y365) | inactive: 0 |
| SSBP2 (UniProt P81877) | inactive: 0 |
| SYF2 (UniProt O95926) | inactive: 0 |
| SPAG1 (UniProt Q07617) | inactive: 0 |
| SMARCD2 (UniProt Q92925) | inactive: 0 |
| SPATA33 (UniProt Q96N06) | inactive: 0 |
| STAMBP (UniProt O95630) | inactive: 0 |
| SRRM1 (UniProt Q8IYB3) | active: 1 |
| SPEN (UniProt Q96T58) | inactive: 0 |
| SVIL (UniProt O95425) | inactive: 0 |
| SMAP (UniProt O00193) | inactive: 0 |

Three entries drawn at random from those above, as already listed:

| Target | dose-dependent thermal stabilisation call |
| --- | --- |
| SIPA1L1 (UniProt O43166) | inactive: 0 |
| STAMBP (UniProt O95630) | inactive: 0 |
| SNRPB2 (UniProt P08579) | inactive: 0 |

Later entries

| Target | dose-dependent thermal stabilisation call |
| --- | --- |
| SPTBN1 (UniProt Q01082) | inactive: 0 |
| SMC4 (UniProt Q9NTJ3) | inactive: 0 |
| SMAD5 (UniProt Q99717) | inactive: 0 |
| SLAIN1 (UniProt Q8ND83) | inactive: 0 |
| SUPT7L (UniProt O94864) | inactive: 0 |
| SWAP70 (UniProt Q9UH65) | active: 1 |
| STAM (UniProt Q92783) | inactive: 0 |
| SNRPA (UniProt P09012) | inactive: 0 |
| SRSF5 (UniProt Q13243) | active: 1 |
| STRN4 (UniProt Q9NRL3) | inactive: 0 |
| SPECC1 (UniProt Q5M775) | inactive: 0 |
| STK38L (UniProt Q9Y2H1) | inactive: 0 |
| STAT2 (UniProt P52630) | active: 1 |
| SIAE (UniProt Q9HAT2) | inactive: 0 |
| SNTB1 (UniProt Q13884) | inactive: 0 |
| STX7 (UniProt O15400) | inactive: 0 |
| STAT6 (UniProt P42226) | active: 1 |
| STAT3 (UniProt P40763) | inactive: 0 |
| STAT1 (UniProt P42224) | inactive: 0 |
| SSSCA1 (UniProt O60232) | inactive: 0 |
